Results are given in words; binding and its absence hold for the method and conditions named. In cells and extracts the contact can be indirect. Some results given as binding are weak or reduced against the parent protein; the word gives no strength.
Columns and labels:
[1] = target: Ataxin-3 (UniProt P54252); test: GST pull-down from cell extracts, immunoblot
[2] = target: vimentin (human) (UniProt P08670); test: GST pull-down from cell extracts, immunoblot with antibodies against vimentin
[3] = target: Ataxin-3 (UniProt P54252); test: GST pull-down from cell extracts, immunoblot with antibodies against Ataxin-3
[4] = target: Ataxin-3 (UniProt P54252); test: pull-down with full-length GST fusion from protein extracts, immunoblot

Sequences of proteins named here, by UniProt entry; tags and fusion partners are left off. A change or cut given only in a name is not applied to a line headed by its entry. Residues count along the entry.
UniProt P54252: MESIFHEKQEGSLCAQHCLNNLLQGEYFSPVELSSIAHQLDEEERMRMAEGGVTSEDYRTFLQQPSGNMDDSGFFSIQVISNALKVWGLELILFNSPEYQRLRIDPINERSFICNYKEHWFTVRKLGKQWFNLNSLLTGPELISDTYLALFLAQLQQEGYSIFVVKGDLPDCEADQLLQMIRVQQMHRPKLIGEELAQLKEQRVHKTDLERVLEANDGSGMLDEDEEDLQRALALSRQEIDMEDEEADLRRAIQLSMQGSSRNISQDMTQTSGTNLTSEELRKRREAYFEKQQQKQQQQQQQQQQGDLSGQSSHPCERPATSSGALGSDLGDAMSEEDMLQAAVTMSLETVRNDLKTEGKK
UniProt P08670, residues 2-466: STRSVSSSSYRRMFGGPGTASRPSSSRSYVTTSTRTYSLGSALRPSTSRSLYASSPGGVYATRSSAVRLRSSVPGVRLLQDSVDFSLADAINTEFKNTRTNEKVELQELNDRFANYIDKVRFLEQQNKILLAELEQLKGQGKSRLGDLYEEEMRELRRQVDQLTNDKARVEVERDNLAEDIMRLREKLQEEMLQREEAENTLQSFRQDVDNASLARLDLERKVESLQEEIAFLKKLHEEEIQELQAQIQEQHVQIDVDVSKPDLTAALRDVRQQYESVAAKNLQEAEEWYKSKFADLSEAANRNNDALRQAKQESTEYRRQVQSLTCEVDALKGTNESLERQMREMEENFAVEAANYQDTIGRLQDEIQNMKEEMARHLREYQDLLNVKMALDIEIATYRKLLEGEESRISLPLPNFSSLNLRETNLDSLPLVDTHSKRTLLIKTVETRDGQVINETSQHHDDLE
UniProt P54727: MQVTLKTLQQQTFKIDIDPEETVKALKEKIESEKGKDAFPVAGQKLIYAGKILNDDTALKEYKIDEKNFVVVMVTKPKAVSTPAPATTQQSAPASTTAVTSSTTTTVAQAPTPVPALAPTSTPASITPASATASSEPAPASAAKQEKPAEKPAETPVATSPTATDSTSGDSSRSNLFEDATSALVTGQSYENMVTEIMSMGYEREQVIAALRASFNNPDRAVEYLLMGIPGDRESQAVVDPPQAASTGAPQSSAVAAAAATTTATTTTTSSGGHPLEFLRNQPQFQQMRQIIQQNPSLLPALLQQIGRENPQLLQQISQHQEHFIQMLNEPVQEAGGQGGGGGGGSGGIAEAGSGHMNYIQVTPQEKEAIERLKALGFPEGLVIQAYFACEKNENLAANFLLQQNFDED
UniProt P54725: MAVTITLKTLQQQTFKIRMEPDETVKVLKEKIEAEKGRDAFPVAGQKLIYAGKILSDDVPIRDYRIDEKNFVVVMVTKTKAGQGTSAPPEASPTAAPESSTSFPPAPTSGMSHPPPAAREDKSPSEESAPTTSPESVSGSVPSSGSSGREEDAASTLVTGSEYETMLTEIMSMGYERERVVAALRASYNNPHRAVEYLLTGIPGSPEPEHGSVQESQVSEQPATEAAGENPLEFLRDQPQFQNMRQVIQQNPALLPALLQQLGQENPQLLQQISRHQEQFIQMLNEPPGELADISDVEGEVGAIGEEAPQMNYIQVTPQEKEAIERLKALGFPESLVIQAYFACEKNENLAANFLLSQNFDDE

Row | Substance | binding [1] | binding [2] | binding [3] | binding [4]
1 | GST-UbL-B^1-76 (UbL domain of hHR23B ending in Val-Val-Val-Met-Val-Thr-Lys) (from UniProt P54727 1-76) | binds | – | – | –
2 | GST-UbL-B (UbL domain of human hHR23B, residues 1-78) (from UniProt P54727 1-78) | binds | binds | binds | –
3 | full-length GST-tagged hHR23A (from UniProt P54725 1-363) | – | – | – | binds
4 | full-length GST-tagged hHR23B (from UniProt P54727 1-409) | – | – | – | binds
